This is a selection; strong and weak results do not stand in their true shares. Calls are pooled over several reports, among them a noisy single-well screen. The list shows a part of the results.
What was measured:
Conditions in all cases: stereoisomer not certain
[1] = tested on: T1, 
T1 sequence (whole entry): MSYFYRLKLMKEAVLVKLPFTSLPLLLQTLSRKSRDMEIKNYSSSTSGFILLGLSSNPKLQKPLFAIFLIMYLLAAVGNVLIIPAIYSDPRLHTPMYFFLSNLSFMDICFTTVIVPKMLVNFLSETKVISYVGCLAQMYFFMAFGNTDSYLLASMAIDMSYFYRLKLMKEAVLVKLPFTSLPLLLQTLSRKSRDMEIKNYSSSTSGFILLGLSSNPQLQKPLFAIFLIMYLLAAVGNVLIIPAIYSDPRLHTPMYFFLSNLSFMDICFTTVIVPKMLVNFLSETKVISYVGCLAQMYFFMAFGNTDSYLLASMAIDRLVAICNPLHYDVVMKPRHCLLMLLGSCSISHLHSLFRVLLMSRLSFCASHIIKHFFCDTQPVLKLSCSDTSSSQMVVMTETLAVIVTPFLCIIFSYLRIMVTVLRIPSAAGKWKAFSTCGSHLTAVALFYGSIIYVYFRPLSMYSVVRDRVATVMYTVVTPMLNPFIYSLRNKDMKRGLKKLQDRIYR
Outline: (§1)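 Each receptor–molecule pair is labelled responsive or non-responsive (inactive) according to whether the original authors judged the measured signal statistically different from baseline. The data were taken from the main text and supplementary material of published papers and checked for typos and inconsistencies. Assay methods differed by source, with transient luciferase assays in mammalian cell lines being common.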

[2] = tested on: T2, O1020
T2 sequence (whole entry): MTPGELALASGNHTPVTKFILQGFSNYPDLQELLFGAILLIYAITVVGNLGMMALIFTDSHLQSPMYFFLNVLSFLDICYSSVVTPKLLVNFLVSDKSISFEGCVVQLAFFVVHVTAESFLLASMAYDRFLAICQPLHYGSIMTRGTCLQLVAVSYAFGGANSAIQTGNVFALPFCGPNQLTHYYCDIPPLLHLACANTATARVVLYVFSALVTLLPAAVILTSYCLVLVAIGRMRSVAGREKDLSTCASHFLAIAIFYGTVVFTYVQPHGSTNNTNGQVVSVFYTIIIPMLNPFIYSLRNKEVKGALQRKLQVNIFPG
Outline: as §1

[3] = tested on: T3, O1052
T3 sequence (whole entry): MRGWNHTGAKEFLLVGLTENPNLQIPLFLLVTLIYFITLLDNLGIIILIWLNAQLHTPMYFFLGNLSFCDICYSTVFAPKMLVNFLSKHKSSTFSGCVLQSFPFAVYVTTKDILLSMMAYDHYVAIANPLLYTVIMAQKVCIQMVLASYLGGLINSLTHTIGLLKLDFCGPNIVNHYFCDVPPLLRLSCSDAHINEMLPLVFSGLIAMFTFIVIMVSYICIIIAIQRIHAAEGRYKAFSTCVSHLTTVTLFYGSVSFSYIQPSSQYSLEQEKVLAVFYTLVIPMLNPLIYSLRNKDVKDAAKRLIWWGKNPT
Outline: as §1

[4] = tested on: T4, O10A2
T4 sequence (whole entry): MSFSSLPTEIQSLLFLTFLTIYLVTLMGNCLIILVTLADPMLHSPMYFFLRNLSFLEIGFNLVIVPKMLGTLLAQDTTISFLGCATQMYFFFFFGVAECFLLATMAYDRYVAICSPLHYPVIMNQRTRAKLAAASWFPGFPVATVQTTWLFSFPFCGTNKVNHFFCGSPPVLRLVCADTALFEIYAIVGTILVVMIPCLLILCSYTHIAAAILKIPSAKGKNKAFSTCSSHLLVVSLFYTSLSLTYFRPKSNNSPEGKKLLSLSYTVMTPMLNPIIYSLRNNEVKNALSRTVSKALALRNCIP
Outline: as §1

[5] = tested on: T5, O10A4
T5 sequence (whole entry): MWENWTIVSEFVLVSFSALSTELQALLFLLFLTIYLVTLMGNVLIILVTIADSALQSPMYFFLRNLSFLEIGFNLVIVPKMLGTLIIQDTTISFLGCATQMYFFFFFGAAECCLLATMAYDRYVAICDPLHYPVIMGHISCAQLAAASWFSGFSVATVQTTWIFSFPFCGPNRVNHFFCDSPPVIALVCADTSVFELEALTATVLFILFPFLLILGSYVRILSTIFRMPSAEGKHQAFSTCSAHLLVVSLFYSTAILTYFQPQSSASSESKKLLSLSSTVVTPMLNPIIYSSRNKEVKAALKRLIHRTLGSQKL
Outline: as §1

[6] = tested on: T6, O10A5
T6 sequence (whole entry): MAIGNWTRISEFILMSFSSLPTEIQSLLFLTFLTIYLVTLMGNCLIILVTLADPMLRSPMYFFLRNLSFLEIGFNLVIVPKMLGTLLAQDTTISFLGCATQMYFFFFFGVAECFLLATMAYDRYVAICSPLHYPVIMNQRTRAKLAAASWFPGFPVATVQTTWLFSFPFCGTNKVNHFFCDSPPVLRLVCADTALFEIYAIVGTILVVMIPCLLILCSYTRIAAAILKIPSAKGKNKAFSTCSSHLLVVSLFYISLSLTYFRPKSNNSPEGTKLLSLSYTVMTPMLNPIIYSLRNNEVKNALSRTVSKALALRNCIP
Outline: as §1

[7] = tested on: T7, O10AD
T7 sequence (whole entry): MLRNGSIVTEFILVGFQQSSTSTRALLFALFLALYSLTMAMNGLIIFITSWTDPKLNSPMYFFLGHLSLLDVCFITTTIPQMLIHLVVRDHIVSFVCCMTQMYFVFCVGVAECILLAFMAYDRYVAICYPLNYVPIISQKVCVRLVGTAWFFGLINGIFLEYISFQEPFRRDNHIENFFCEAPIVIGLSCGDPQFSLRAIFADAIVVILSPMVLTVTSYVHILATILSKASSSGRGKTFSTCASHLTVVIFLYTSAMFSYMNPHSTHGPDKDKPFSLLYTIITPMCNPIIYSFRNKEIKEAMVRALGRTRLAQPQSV
Outline: as §1

[8] = tested on: T8, O10C1
T8 sequence (whole entry): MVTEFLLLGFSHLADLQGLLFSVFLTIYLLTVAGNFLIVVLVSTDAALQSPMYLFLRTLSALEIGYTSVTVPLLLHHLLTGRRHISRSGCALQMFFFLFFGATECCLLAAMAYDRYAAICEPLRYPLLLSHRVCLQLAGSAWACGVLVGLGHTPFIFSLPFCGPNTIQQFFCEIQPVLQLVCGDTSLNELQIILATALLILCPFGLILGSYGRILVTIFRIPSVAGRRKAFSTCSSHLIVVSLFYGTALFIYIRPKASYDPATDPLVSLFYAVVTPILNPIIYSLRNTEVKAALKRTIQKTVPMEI
Outline: as §1

[9] = tested on: T9, O10D3
T9 sequence (whole entry): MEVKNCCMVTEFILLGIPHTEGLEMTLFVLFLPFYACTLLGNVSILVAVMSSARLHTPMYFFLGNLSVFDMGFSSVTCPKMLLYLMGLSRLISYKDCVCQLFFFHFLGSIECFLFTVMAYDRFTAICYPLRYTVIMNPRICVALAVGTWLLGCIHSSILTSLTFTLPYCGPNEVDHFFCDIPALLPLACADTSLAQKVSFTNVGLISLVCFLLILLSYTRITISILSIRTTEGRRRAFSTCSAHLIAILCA
Outline: as §1

[10] = tested on: A0A140T8K0
Outline: as §1

Measured: odorant receptor agonist call;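 note: active if original authors judged signal statistically different from baseline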

CS
not listed: [10]
inactive: all other assays above

CCOc1cc(C=O)ccc1O
inactive: [10]

CCCCOC(C)=O
not listed: [10]
inactive: all other assays above

CCC(C)=O
inactive: all assays above
